PubChem BioAssay AID504784 | Drosophila RNAi Screening Center | 2011
The deposit covers about 17,000 reagents; shown is a random part of those with a known target gene and a result. 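Each column is one replicate's B-score; the combined score over replicates was not deposited, so single values may mislead.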 Further read-outs or replicates are left out here. Reagent sequences are not shown.

- Screen: 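Genome-wide knock-down for genes giving too much or too little stored lipid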 (primary screen)
- Cells: Drosophila Kc167 embryonic cells
- Knock-down reagent: long dsRNA against Drosophila genes, about 250 ng dsRNA per well
- Timing: 4 days
- Challenge: cells fed 400 µM oleic acid bound to BSA
- Measurement: 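Cells imaged and segmented; ratio of lipid droplet area to nuclear area, log-transformed, then normalised as a B-score over the screen; higher means more stored lipid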
- Direction: droplet/nuclear area B-score: higher = more stored lipid (overstorage)

GLaz [DRSC07431] → droplet/nuclear area B-score, replicate 1 = 3.69
CG5376 [DRSC15782] → droplet/nuclear area B-score, replicate 1 = 0.199
VhaM9.7-b [DRSC11841] → droplet/nuclear area B-score, replicate 1 = -0.272
Gs1 [DRSC00753] → droplet/nuclear area B-score, replicate 1 = 0.0908
CASK [DRSC14588] → droplet/nuclear area B-score, replicate 1 = -0.825
CASK [DRSC16597] → droplet/nuclear area B-score, replicate 1 = 0.118
CASK [DRSC16598] → droplet/nuclear area B-score, replicate 1 = 0.0296
CASK [DRSC21917] → droplet/nuclear area B-score, replicate 1 = -0.258
CG6048 [DRSC18398] → droplet/nuclear area B-score, replicate 1 = 0.0405
CG14515 [DRSC14867] → droplet/nuclear area B-score, replicate 1 = 0.117
Vps28 [DRSC06168] → droplet/nuclear area B-score, replicate 1 = -0.334
Pura [DRSC08891] → droplet/nuclear area B-score, replicate 1 = 1.49
Pura [DRSC10862] → droplet/nuclear area B-score, replicate 1 = -0.858
Pura [DRSC10864] → droplet/nuclear area B-score, replicate 1 = -1.28
Pura [DRSC10865] → droplet/nuclear area B-score, replicate 1 = -0.604
Pura [DRSC10866] → droplet/nuclear area B-score, replicate 1 = -0.0098
aust [DRSC02558] → droplet/nuclear area B-score, replicate 1 = -1.24
CG12912 [DRSC06227] → droplet/nuclear area B-score, replicate 1 = -0.0676
Wdr37 [DRSC14500] → droplet/nuclear area B-score, replicate 1 = -0.191
Fmo-2 [DRSC04983] → droplet/nuclear area B-score, replicate 1 = 0.958
CG13133 [DRSC02230] → droplet/nuclear area B-score, replicate 1 = 0.0247
Ctu2 [DRSC02024] → droplet/nuclear area B-score, replicate 1 = 0.397
Snmp2 [DRSC10228] → droplet/nuclear area B-score, replicate 1 = -1.41
Snmp2 [DRSC10843] → droplet/nuclear area B-score, replicate 1 = -2.32
Syx18 [DRSC14628] → droplet/nuclear area B-score, replicate 1 = 2.25
ebo [DRSC18787] → droplet/nuclear area B-score, replicate 1 = 1.45
Dtwd2 [DRSC12501] → droplet/nuclear area B-score, replicate 1 = -1.24
CG14036 [DRSC02361] → droplet/nuclear area B-score, replicate 1 = -0.107
CG8945 [DRSC20129] → droplet/nuclear area B-score, replicate 1 = 0.0211
CG8945 [DRSC20130] → droplet/nuclear area B-score, replicate 1 = -0.00863
Dsk [DRSC12347] → droplet/nuclear area B-score, replicate 1 = -0.912
CG31871 [DRSC02567] → droplet/nuclear area B-score, replicate 1 = -0.439
CG31871 [DRSC02571] → droplet/nuclear area B-score, replicate 1 = 1.69
cv-c [DRSC14969] → droplet/nuclear area B-score, replicate 1 = -0.366
cv-c [DRSC14970] → droplet/nuclear area B-score, replicate 1 = 0.262
cv-c [DRSC14971] → droplet/nuclear area B-score, replicate 1 = 1.96
cv-c [DRSC14972] → droplet/nuclear area B-score, replicate 1 = -1.11
cv-c [DRSC14973] → droplet/nuclear area B-score, replicate 1 = 0.964
cv-c [DRSC16428] → droplet/nuclear area B-score, replicate 1 = 0.395
cv-c [DRSC23199] → droplet/nuclear area B-score, replicate 1 = 0.985

Laid out differently: entries from further up.
CG14515 [DRSC14867]
- droplet/nuclear area B-score, replicate 1: 0.117

Vps28 [DRSC06168]
- droplet/nuclear area B-score, replicate 1: -0.334

Pura [DRSC08891]
- droplet/nuclear area B-score, replicate 1: 1.49

Pura [DRSC10862]
- droplet/nuclear area B-score, replicate 1: -0.858

Pura [DRSC10864]
- droplet/nuclear area B-score, replicate 1: -1.28

Pura [DRSC10865]
- droplet/nuclear area B-score, replicate 1: -0.604
